Results as given in the supplement of paper PMC6411743.
± gives the standard deviation of the averaged measurements. This is a selection; strong and weak results do not stand in their true shares. Most entries show no effect beyond the scatter of the controls.

Chains of the proteins cited; added tags and fusions are not shown. Lines headed by an entry give the natural chain unless they say otherwise; changes in a name come on top.
UniProt Q9UQV4: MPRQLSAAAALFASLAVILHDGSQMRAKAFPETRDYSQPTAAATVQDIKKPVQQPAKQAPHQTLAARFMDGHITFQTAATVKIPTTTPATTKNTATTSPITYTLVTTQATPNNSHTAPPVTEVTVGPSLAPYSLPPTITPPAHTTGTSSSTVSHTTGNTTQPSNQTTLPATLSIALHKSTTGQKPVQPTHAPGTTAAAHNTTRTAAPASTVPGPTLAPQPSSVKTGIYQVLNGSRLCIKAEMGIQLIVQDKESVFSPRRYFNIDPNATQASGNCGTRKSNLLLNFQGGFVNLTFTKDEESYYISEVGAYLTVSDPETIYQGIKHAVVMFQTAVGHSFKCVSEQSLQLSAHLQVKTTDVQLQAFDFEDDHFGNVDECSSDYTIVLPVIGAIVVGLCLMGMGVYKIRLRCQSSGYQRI
UniProt Q96I99: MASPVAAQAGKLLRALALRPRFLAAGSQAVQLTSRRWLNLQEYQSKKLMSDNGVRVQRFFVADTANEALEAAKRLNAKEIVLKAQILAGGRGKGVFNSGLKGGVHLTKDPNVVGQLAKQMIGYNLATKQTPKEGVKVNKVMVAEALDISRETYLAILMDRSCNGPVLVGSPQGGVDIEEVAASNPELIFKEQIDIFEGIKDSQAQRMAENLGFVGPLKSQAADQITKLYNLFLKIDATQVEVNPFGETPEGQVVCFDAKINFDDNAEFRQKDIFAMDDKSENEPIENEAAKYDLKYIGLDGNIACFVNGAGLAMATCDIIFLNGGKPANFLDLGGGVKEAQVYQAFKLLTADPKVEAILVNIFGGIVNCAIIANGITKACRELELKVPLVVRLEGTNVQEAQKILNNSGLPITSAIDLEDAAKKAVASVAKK
UniProt Q86X53: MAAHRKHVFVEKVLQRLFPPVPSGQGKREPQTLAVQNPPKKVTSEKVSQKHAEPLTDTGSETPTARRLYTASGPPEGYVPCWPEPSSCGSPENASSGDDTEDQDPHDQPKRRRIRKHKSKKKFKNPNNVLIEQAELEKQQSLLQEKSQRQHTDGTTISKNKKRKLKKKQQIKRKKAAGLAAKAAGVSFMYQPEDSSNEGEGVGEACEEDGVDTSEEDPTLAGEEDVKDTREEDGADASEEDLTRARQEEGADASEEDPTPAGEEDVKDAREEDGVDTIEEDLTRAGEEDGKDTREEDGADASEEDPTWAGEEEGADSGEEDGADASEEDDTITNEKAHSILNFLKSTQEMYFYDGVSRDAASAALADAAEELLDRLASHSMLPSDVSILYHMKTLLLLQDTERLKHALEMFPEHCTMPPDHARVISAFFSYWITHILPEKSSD
UniProt O95831, whole entry: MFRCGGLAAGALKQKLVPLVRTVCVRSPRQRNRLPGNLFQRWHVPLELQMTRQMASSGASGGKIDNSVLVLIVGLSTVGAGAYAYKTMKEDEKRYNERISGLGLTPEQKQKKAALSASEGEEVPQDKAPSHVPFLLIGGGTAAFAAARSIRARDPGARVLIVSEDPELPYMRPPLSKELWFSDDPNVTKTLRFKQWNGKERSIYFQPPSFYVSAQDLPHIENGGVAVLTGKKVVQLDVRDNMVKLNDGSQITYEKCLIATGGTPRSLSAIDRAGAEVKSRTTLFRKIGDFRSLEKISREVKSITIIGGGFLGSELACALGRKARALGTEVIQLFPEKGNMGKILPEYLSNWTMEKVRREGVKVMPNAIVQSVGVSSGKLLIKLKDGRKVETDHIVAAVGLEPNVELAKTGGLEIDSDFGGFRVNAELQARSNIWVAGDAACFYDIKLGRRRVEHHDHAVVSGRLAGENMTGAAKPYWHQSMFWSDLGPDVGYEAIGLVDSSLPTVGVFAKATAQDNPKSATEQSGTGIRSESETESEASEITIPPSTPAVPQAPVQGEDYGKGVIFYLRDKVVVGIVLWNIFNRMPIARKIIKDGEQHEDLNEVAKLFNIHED
UniProt P57071, whole entry: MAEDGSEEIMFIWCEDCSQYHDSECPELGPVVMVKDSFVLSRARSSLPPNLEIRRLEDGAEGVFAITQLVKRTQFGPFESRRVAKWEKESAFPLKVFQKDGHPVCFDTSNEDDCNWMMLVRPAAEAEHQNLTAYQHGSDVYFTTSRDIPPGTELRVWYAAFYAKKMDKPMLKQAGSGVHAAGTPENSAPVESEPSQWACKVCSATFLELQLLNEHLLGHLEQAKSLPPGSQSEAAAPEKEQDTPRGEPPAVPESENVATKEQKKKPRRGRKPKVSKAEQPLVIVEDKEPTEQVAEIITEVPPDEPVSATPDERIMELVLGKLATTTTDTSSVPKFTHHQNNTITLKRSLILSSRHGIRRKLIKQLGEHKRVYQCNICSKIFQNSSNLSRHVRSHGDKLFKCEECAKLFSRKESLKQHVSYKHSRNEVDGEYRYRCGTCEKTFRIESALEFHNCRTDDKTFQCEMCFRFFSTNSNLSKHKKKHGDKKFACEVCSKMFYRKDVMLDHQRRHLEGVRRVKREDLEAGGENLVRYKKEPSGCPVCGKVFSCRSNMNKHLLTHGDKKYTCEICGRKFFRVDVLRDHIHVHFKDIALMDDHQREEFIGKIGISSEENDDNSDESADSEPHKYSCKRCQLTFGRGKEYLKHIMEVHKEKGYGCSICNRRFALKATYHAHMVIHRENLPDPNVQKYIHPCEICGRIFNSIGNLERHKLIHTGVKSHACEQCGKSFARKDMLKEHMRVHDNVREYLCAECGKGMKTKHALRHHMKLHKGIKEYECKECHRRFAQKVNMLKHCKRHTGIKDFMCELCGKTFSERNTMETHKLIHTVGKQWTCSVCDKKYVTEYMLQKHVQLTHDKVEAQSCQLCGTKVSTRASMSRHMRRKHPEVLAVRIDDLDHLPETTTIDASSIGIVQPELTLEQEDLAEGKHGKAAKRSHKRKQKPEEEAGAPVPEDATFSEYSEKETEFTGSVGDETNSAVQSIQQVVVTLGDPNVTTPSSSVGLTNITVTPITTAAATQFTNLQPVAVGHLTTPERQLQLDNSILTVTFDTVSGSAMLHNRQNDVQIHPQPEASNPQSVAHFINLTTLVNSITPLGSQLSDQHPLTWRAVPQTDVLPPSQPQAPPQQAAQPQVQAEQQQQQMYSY
UniProt Q8WVB6, whole entry: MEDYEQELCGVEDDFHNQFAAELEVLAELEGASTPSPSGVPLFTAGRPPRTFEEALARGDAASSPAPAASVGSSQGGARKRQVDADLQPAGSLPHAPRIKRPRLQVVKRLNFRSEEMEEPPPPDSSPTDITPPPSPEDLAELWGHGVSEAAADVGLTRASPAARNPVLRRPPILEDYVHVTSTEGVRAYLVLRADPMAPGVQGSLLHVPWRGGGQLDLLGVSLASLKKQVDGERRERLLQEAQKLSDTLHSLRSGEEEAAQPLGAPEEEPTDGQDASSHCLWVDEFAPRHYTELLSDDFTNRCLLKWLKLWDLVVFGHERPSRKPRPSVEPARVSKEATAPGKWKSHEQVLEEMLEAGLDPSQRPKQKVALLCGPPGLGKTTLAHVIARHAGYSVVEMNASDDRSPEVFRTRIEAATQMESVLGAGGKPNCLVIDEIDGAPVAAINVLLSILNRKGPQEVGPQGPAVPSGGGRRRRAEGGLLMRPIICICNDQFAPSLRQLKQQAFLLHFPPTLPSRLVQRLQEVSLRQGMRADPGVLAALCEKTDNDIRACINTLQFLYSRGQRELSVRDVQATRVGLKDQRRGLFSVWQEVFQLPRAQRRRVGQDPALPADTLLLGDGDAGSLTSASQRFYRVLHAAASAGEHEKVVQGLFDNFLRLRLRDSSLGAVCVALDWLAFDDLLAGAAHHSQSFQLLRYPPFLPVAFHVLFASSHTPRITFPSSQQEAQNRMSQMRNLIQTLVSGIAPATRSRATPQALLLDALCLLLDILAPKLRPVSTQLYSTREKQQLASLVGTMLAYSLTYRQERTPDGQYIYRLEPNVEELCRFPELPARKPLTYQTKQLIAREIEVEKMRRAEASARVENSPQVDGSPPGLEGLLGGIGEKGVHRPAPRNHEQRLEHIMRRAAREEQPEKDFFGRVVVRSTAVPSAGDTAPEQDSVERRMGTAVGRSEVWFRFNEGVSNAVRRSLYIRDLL
UniProt Q9NZD2: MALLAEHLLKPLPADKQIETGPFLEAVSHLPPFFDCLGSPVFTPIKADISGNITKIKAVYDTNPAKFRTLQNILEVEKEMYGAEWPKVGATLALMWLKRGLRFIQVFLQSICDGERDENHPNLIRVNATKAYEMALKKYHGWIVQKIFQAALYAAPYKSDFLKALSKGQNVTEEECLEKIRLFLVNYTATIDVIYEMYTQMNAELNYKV
UniProt Q9Y5Q0: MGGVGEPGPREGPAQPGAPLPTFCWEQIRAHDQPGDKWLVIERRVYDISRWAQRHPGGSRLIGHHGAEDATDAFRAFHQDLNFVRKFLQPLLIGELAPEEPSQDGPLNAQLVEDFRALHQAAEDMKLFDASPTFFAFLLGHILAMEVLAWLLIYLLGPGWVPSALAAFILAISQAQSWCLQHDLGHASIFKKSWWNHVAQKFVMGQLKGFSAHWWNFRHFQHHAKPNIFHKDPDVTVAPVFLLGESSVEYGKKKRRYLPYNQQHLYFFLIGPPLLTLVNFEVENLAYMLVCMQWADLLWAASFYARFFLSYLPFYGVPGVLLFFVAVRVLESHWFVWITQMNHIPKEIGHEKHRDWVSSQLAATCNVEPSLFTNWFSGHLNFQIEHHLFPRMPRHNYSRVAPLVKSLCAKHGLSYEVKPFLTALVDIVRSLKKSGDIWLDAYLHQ
UniProt Q8N9N8: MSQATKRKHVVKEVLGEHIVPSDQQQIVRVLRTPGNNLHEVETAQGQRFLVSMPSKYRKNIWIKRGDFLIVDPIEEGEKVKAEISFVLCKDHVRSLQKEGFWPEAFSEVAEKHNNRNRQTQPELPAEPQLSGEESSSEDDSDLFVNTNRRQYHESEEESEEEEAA
UniProt Q0P6D6: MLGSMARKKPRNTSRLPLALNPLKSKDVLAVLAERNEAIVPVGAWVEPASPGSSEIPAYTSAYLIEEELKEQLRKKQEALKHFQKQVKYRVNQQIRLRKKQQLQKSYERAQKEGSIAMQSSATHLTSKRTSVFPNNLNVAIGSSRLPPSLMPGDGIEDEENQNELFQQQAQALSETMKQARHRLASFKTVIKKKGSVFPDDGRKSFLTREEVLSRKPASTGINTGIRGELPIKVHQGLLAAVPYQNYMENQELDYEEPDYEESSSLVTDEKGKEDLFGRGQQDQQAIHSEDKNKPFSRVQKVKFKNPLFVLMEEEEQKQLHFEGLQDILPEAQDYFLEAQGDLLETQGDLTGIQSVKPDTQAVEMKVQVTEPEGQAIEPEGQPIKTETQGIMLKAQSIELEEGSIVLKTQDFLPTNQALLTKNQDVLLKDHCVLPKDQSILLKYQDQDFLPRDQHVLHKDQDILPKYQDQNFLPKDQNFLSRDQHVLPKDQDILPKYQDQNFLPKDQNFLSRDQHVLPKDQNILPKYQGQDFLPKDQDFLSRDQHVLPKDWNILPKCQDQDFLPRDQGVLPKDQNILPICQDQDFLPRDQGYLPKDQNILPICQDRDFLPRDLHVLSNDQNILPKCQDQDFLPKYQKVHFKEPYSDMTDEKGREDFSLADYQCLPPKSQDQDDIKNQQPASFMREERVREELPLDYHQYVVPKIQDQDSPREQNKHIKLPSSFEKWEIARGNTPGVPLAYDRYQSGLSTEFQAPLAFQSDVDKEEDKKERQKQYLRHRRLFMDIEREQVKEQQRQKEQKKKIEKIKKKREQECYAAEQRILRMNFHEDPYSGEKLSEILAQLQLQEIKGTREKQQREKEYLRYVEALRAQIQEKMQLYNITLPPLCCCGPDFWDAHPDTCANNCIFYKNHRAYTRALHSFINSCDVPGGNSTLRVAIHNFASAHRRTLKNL
UniProt A6NKF1: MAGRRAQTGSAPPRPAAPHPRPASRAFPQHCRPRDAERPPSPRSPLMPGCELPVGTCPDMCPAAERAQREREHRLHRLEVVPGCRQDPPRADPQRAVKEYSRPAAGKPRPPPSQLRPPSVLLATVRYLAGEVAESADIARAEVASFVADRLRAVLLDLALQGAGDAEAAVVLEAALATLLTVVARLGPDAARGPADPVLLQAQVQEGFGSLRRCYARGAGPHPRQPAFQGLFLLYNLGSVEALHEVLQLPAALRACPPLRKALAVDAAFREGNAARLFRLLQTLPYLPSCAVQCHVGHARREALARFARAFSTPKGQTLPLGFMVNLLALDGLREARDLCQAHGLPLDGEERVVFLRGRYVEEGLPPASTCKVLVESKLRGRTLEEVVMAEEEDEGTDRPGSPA
UniProt O75496: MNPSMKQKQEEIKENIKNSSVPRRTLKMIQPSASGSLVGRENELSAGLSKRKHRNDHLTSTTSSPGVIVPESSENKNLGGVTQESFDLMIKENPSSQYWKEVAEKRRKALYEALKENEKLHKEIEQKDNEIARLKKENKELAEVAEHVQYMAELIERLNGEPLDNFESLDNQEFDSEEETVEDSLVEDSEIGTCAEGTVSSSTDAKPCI
UniProt Q53FT3: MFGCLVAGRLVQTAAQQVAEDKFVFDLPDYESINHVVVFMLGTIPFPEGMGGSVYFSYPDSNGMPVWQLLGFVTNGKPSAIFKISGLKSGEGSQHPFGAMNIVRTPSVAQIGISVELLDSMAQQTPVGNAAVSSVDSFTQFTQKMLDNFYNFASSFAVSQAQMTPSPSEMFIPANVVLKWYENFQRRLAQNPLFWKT

Compound: Nc1ncnc2c1ncn2[C@@H]1O[C@H](COP(=O)(O)OP(=O)(O)OP(=O)(O)O)[C@@H](O)[C@H]1O [adenosine triphosphate]
Assay: NP40-soluble protein abundance relative to vehicle (solubility fold change) (ratio); higher = more soluble protein in presence of ATP
Outline: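 Jurkat crude lysate prepared with a Dounce homogeniser was treated at eight concentrations spanning 0.1 to 10 mM, 10 min at room temperature then 3 min at 37 °C. Solubilisation with 0.8% NP40 and benzonase and ultracentrifugation preceded TMT labelling of the supernatant for LC-MS/MS. Fold change against the detergent-processed vehicle was determined per replicate from vsn-normalised intensities, across three independent experiments.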

Question: “E9PR30 and related entries (UniProt P62861)” was tested. Which NP40-soluble protein abundance (concentration: 0.1mM) did it give?
Answer: Its NP40-soluble protein abundance is 0.859 ± 0.11.

Question: And the NP40-soluble protein abundance (concentration: 0.5mM)?
Answer: The NP40-soluble protein abundance was 0.913 ± 0.19.

Question: For “E7EQT4 and related entries (UniProt Q9UKV3)”, which NP40-soluble protein abundance (concentration: 0.1mM) is on record?
Answer: The NP40-soluble protein abundance was 0.974 ± 0.044.

Question: What about the NP40-soluble protein abundance (concentration: 0.5mM) of the same target?
Answer: Its NP40-soluble protein abundance is 1.01 ± 0.063.

Question: How did the NP40-soluble protein abundance (concentration: 0.1mM) turn out when “F5GZ97 and related entries (UniProt Q9Y3C0)” was run?
Answer: The NP40-soluble protein abundance was 0.849 ± 0.14.

Question: And the NP40-soluble protein abundance (concentration: 0.5mM)?
Answer: Its NP40-soluble protein abundance is 0.837 ± 0.18.

Question: “E9PSH8 and related entries (UniProt P07766)” was tested. Which NP40-soluble protein abundance (concentration: 0.1mM) did it give?
Answer: Its NP40-soluble protein abundance is 1.02 ± 0.049.

Question: What about the NP40-soluble protein abundance (concentration: 0.5mM) of the same target?
Answer: Its NP40-soluble protein abundance is 1.03 ± 0.037.

Question: For “F5H070 and related entries (UniProt Q9Y4C1)”, which NP40-soluble protein abundance (concentration: 0.1mM) is on record?
Answer: The NP40-soluble protein abundance was 0.995 ± 0.013.

Question: What about the NP40-soluble protein abundance (concentration: 0.5mM) of the same target?
Answer: The NP40-soluble protein abundance was 0.995 ± 0.025.

Question: With “G3V553 and related entries (UniProt Q9NWQ4)” as the target, how does the NP40-soluble protein abundance (concentration: 0.1mM) read?
Answer: The NP40-soluble protein abundance was 0.899 ± 0.047.

Question: And the NP40-soluble protein abundance (concentration: 0.5mM)?
Answer: Its NP40-soluble protein abundance is 1.05 ± 0.19.

Question: For “E7ETP9 and related entries (UniProt Q9UQV4)”, which NP40-soluble protein abundance (concentration: 0.1mM) is on record?
Answer: Its NP40-soluble protein abundance is 0.927 ± 0.055.

Question: What about the NP40-soluble protein abundance (concentration: 0.5mM) of the same target?
Answer: The NP40-soluble protein abundance was 0.865 ± 0.081.

Question: For “E9PDQ8 and related entries (UniProt Q96I99)”, which NP40-soluble protein abundance (concentration: 0.1mM) is on record?
Answer: The NP40-soluble protein abundance was 1.02 ± 0.041.

Question: And the NP40-soluble protein abundance (concentration: 0.5mM)?
Answer: The NP40-soluble protein abundance was 1.02 ± 0.048.

Question: How did the NP40-soluble protein abundance (concentration: 0.1mM) turn out when “F5GZG6 and related entries (UniProt Q9H3S4)” was run?
Answer: The NP40-soluble protein abundance was 1.039 ± 0.0073.

Question: What about the NP40-soluble protein abundance (concentration: 0.5mM) of the same target?
Answer: The NP40-soluble protein abundance was 0.955 ± 0.058.

Question: What does the source list for “E9PEJ6 and related entries (UniProt P98196)”?
Answer: NP40-soluble protein abundance (concentration: 0.1mM): 1.06 ± 0.071; NP40-soluble protein abundance (concentration: 0.5mM): 0.961 ± 0.03

Question: Which results are given for “E5RHA3 and related entries (UniProt Q86X53)”?
Answer: NP40-soluble protein abundance (concentration: 0.1mM): 0.932 ± 0.089; NP40-soluble protein abundance (concentration: 0.5mM): 0.9204 ± 0.0029

Question: Which results are given for “E9PRR0 and related entries (UniProt O95831)”?
Answer: NP40-soluble protein abundance (concentration: 0.1mM): 1.04 ± 0.07; NP40-soluble protein abundance (concentration: 0.5mM): 1.05 ± 0.049

Question: “E7ER26 and related entries (UniProt P57071)” was tested. Which NP40-soluble protein abundance (concentration: 0.1mM) did it give?
Answer: The NP40-soluble protein abundance was 1.04 ± 0.028.

Question: What about the NP40-soluble protein abundance (concentration: 0.5mM) of the same target?
Answer: Its NP40-soluble protein abundance is 0.973 ± 0.12.

Question: With “G3V529 and related entries (UniProt Q9GZR7)” as the target, how does the NP40-soluble protein abundance (concentration: 0.1mM) read?
Answer: The NP40-soluble protein abundance was 0.994 ± 0.013.

Question: What about the NP40-soluble protein abundance (concentration: 0.5mM) of the same target?
Answer: The NP40-soluble protein abundance was 1.03 ± 0.012.

Question: With “E9PB93 and related entries (UniProt O15514)” as the target, how does the NP40-soluble protein abundance (concentration: 0.1mM) read?
Answer: The NP40-soluble protein abundance was 0.905 ± 0.13.

Question: And the NP40-soluble protein abundance (concentration: 0.5mM)?
Answer: The NP40-soluble protein abundance was 0.943 ± 0.037.

Question: Which results are given for “E7ETR1 and related entries (UniProt Q8NCB2)”?
Answer: NP40-soluble protein abundance (concentration: 0.1mM): 0.978 ± 0.029; NP40-soluble protein abundance (concentration: 0.5mM): 0.9736 ± 0.0026

Question: Which results are given for “E7EXA6 and related entries (UniProt Q8WVB6)”?
Answer: NP40-soluble protein abundance (concentration: 0.1mM): 1.05 ± 0.023; NP40-soluble protein abundance (concentration: 0.5mM): 1.24 ± 0.1

Question: Which NP40-soluble protein abundance (concentration: 0.1mM) does the source give for “F8VNV8 and related entries (UniProt P54284)” here?
Answer: Its NP40-soluble protein abundance is 0.987 ± 0.18.

Question: And the NP40-soluble protein abundance (concentration: 0.5mM)?
Answer: The NP40-soluble protein abundance was 1.1 ± 0.024.

Question: With “F5H0U5 and related entries (UniProt Q9NZD2)” as the target, how does the NP40-soluble protein abundance (concentration: 0.1mM) read?
Answer: The NP40-soluble protein abundance was 0.879 ± 0.12.

Question: What about the NP40-soluble protein abundance (concentration: 0.5mM) of the same target?
Answer: Its NP40-soluble protein abundance is 0.829 ± 0.17.

Question: How did the NP40-soluble protein abundance (concentration: 0.1mM) turn out when “E9PS00 and related entries (UniProt Q9Y5Q0)” was run?
Answer: The NP40-soluble protein abundance was 1.08 ± 0.17.

Question: What about the NP40-soluble protein abundance (concentration: 0.5mM) of the same target?
Answer: The NP40-soluble protein abundance was 1.14 ± 0.051.

Question: With “E7END7 and related entries (UniProt P62820)” as the target, how does the NP40-soluble protein abundance (concentration: 0.1mM) read?
Answer: Its NP40-soluble protein abundance is 1.03 ± 0.062.

Question: What about the NP40-soluble protein abundance (concentration: 0.5mM) of the same target?
Answer: The NP40-soluble protein abundance was 1.04 ± 0.042.

Question: How did the NP40-soluble protein abundance (concentration: 0.1mM) turn out when “E9PKC0 and related entries (UniProt Q6IQ23)” was run?
Answer: Its NP40-soluble protein abundance is 1.05 ± 0.059.

Question: What about the NP40-soluble protein abundance (concentration: 0.5mM) of the same target?
Answer: The NP40-soluble protein abundance was 1.19 ± 0.083.

Question: With “E9PQ57 and related entries (UniProt P78406)” as the target, how does the NP40-soluble protein abundance (concentration: 0.1mM) read?
Answer: Its NP40-soluble protein abundance is 1.02 ± 0.055.

Question: What about the NP40-soluble protein abundance (concentration: 0.5mM) of the same target?
Answer: Its NP40-soluble protein abundance is 1.06 ± 0.042.

Question: With “G3V3X7 and related entries (UniProt Q9Y587)” as the target, how does the NP40-soluble protein abundance (concentration: 0.1mM) read?
Answer: Its NP40-soluble protein abundance is 1.05 ± 0.08.

Question: And the NP40-soluble protein abundance (concentration: 0.5mM)?
Answer: Its NP40-soluble protein abundance is 1.09 ± 0.12.

Question: “E7ESG2 and related entries (UniProt Q9HAW4)” was tested. Which NP40-soluble protein abundance (concentration: 0.1mM) did it give?
Answer: Its NP40-soluble protein abundance is 1.02 ± 0.04.

Question: What about the NP40-soluble protein abundance (concentration: 0.5mM) of the same target?
Answer: The NP40-soluble protein abundance was 1.01 ± 0.048.

Question: What does the source list for “F5H269 and related entries (UniProt Q9Y485)”?
Answer: NP40-soluble protein abundance (concentration: 0.1mM): 1.03 ± 0.018; NP40-soluble protein abundance (concentration: 0.5mM): 0.991 ± 0.043

Question: For “G3XAH6 and related entries (UniProt P51003)”, which NP40-soluble protein abundance (concentration: 0.1mM) is on record?
Answer: Its NP40-soluble protein abundance is 1 ± 0.034.

Question: What about the NP40-soluble protein abundance (concentration: 0.5mM) of the same target?
Answer: The NP40-soluble protein abundance was 1.02 ± 0.018.

Question: What does the source list for “E9PLI6 and related entries (UniProt Q8N9N8)”?
Answer: NP40-soluble protein abundance (concentration: 0.1mM): 1.01 ± 0.026; NP40-soluble protein abundance (concentration: 0.5mM): 1.01 ± 0.065

Question: For “E9PKB1 and related entries (UniProt Q0P6D6)”, which NP40-soluble protein abundance (concentration: 0.1mM) is on record?
Answer: The NP40-soluble protein abundance was 0.967 ± 0.14.

Question: What about the NP40-soluble protein abundance (concentration: 0.5mM) of the same target?
Answer: Its NP40-soluble protein abundance is 1.04 ± 0.17.

Question: Which NP40-soluble protein abundance (concentration: 0.1mM) does the source give for F8WC89 (UniProt A6NKF1) here?
Answer: Its NP40-soluble protein abundance is 1.02 ± 0.046.

Question: What about the NP40-soluble protein abundance (concentration: 0.5mM) of the same target?
Answer: The NP40-soluble protein abundance was 0.947 ± 0.053.

Question: With “E7ETU7 and related entries (UniProt P09001)” as the target, how does the NP40-soluble protein abundance (concentration: 0.1mM) read?
Answer: The NP40-soluble protein abundance was 0.936 ± 0.1.

Question: And the NP40-soluble protein abundance (concentration: 0.5mM)?
Answer: Its NP40-soluble protein abundance is 0.999 ± 0.075.

Question: With “E7ETY2 and related entries (UniProt Q13428)” as the target, how does the NP40-soluble protein abundance (concentration: 0.1mM) read?
Answer: Its NP40-soluble protein abundance is 1.07 ± 0.047.

Question: And the NP40-soluble protein abundance (concentration: 0.5mM)?
Answer: Its NP40-soluble protein abundance is 1.18 ± 0.068.

Question: With “E7EMS2 and related entries (UniProt P61916)” as the target, how does the NP40-soluble protein abundance (concentration: 0.1mM) read?
Answer: The NP40-soluble protein abundance was 0.939 ± 0.049.

Question: What about the NP40-soluble protein abundance (concentration: 0.5mM) of the same target?
Answer: The NP40-soluble protein abundance was 0.943 ± 0.046.

Question: With “F5GX51 and related entries (UniProt Q9Y4F9)” as the target, how does the NP40-soluble protein abundance (concentration: 0.1mM) read?
Answer: Its NP40-soluble protein abundance is 1.02 ± 0.019.

Question: What about the NP40-soluble protein abundance (concentration: 0.5mM) of the same target?
Answer: The NP40-soluble protein abundance was 1.04 ± 0.04.

Question: Which NP40-soluble protein abundance (concentration: 0.1mM) does the source give for “F8WA39 and related entries (UniProt Q13613)” here?
Answer: The NP40-soluble protein abundance was 1.06 ± 0.022.

Question: And the NP40-soluble protein abundance (concentration: 0.5mM)?
Answer: The NP40-soluble protein abundance was 1.04 ± 0.046.

Question: How did the NP40-soluble protein abundance (concentration: 0.1mM) turn out when “E7EQR8 and related entries (UniProt Q9GZM5)” was run?
Answer: Its NP40-soluble protein abundance is 1.05 ± 0.029.

Question: And the NP40-soluble protein abundance (concentration: 0.5mM)?
Answer: Its NP40-soluble protein abundance is 1.07 ± 0.053.

Question: “E2QRF9 and related entries (UniProt O75496)” was tested. Which NP40-soluble protein abundance (concentration: 0.1mM) did it give?
Answer: The NP40-soluble protein abundance was 0.923 ± 0.052.

Question: What about the NP40-soluble protein abundance (concentration: 0.5mM) of the same target?
Answer: Its NP40-soluble protein abundance is 0.94 ± 0.057.

Question: Which NP40-soluble protein abundance (concentration: 0.1mM) does the source give for “E9PPG8 and related entries (UniProt Q53FT3)” here?
Answer: The NP40-soluble protein abundance was 1.04 ± 0.15.

Question: And the NP40-soluble protein abundance (concentration: 0.5mM)?
Answer: Its NP40-soluble protein abundance is 1.01 ± 0.12.
